Experimental data: doi:10.1101/2025.05.09.653063 (bioRxiv, 2025)
Residue numbers refer to the chain shown, from its start. Results are given in words; binding and its absence hold for the method and conditions named. For part of these data: Binding seen in cells or lysates may run through a third protein. Some binding calls cover weakened binding; strength is not graded here. For part of these data: Tags and fused reporters may be left off the sequences shown.

T1: His-tagged PsmA T213E (Saccharolobus islandicus REY15A) (UniProt C3MQ43)
T1 sequence: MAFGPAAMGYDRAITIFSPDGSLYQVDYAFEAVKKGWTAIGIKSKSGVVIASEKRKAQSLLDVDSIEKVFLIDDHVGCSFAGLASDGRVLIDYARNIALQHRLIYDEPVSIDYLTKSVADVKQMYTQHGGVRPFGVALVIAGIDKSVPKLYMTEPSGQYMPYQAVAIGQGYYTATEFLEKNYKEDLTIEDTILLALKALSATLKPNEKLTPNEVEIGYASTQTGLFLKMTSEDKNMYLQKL

T2: His-tagged wild type PsmA (Saccharolobus islandicus REY15A) (UniProt C3MQ43)
T2 sequence: T1 sequence with E213T

B1: PsmA purified from E. coli (protein, UniProt C3MQ43 1-241)
chain: T1 sequence with E213T
B2: proteasome α subunit (PsmA), genome-encoded, non-tagged (protein, UniProt C3MQ43 1-241)
chain: T1 sequence with E213T

Assays:
[1] = biological target: PsmA purified from E. coli (Saccharolobus islandicus REY15A) (UniProt C3MQ43); experiment: focused ion beam electron microscopy
[2] = biological target: T1, His-tagged PsmA T213E (Saccharolobus islandicus REY15A); experiment: pull-down
[3] = biological target: T2, His-tagged wild type PsmA (Saccharolobus islandicus REY15A); experiment: pull-down

Binder	binding [1]	binding [2]	binding [3]
B1	binds	–	–
B2	–	binds weakly	binds
